From the supplement of paper PMC10398353
Where “and” joins values, the source holds several entries; their conditions need not be identical. Identical values can stand only once. Counter-ions that a name gives are not always drawn. The list shows a part of the results. Single values of this set are uncertain.

Test system: Salmonella enterica serovar Typhimurium ST313 D23580
Experiment: normalized bacterial growth (OD600 20 h minus 0 h, interquartile-mean normalized) (fraction of plate interquartile mean); higher = more bacterial growth (less inhibition)
Conditions: LPM (pH 5.8, low phosphate, low Mg2+), concentration: 10 µM, temperature: 37 °C

Row | Structure (SMILES) | normalized bacterial growth
1 | CCCCC1(COC(=O)CCC(=O)O)C(=O)N(c2ccccc2)N(c2ccccc2)C1=O | 0.919
2 | COc1cc(NC(C)CCCN)c2ncccc2c1 (stereo unspecified) | 0.763
3 | COC1=C(N)C(=O)c2nc(-c3nc(C(=O)O)c(C)c(-c4ccc(OC)c(OC)c4O)c3N)ccc2C1=O | 0.0182
4 | CCCCNc1c(C(=O)OCC)c(C)nc2c1cnn2CC [Tracazolate hydrochloride] | 0.825
5 | CCCCNc1c(C(=O)OCC)c(C)nc2c1cnn2CC [Tracazolate] | 0.773
6 | C[C@H]1O[C@@H](Oc2c(-c3cc(O)c(O)c(O)c3)oc3cc(O)cc(O)c3c2=O)[C@@H](O)[C@@H](O)[C@@H]1O | 1.1
7 | CC[C@@H](C(=O)[C@@H](C)[C@@H](O)[C@H](C)CCc1ccc(C)c(O)c1C(=O)O)[C@H]1O[C@](CC)([C@H]2CC[C@](O)(CC)[C@H](C)O2)C[C@@H]1C [Lasalocid sodium salt] | 1.06
8 | CC[C@@H](C(=O)[C@@H](C)[C@@H](O)[C@H](C)CCc1ccc(C)c(O)c1C(=O)O)[C@H]1O[C@](CC)([C@H]2CC[C@](O)(CC)[C@H](C)O2)C[C@@H]1C | 1.13 and 0.965
9 | CC12CCCC(O)(C1)C1CC(C)(C)C1CC2 (stereo not drawn) [beta-CARYOPHYLLENE ALCOHOL] | 1.16
10 | CC(C)(C)c1ccc(C(O)CCCN2CCC(C(O)(c3ccccc3)c3ccccc3)CC2)cc1 (stereo unspecified) [Terfenadine] | 1.05
11 | Cc1cc(=O)oc2c(O)c(O)ccc12 | 0.79
12 | CC(COc1ccccc1)NC(C)C(O)c1ccc(O)cc1 (stereo unspecified) [Isoxsuprine hydrochloride] | 0.941
13 | CC(COc1ccccc1)NC(C)C(O)c1ccc(O)cc1 (stereo unspecified) | 1.13
14 | CC1(C)[C@@H](O)CC[C@]2(C)[C@H]3C(=O)C=C4[C@H]5C[C@@](C)(C(=O)O)CC[C@]5(C)CC[C@@]4(C)[C@]3(C)CC[C@@H]12 [18alpha-GLYCYRRHETINIC ACID] | 1.19
15 | CCCCN1CCCCC1C(=O)Nc1c(C)cccc1C (stereo unspecified) | 0.962
16 | CCOC(=O)NNc1nncc2ccccc12 | 1.23
17 | CC(=O)c1c(O)cc(O)cc1O | 0.99
18 | CC(=O)O[C@@H]1CC2C(C)(CC[C@H](O)C2(C)C)C2CC[C@]3(C)C(=CC(=O)O[C@H]3c3ccoc3)C21C (stereo partly drawn) [3beta-HYDROXYDEOXODIHYDRODEOXYGEDUNIN] | 0.918
19 | CCN(CCO)CCCC(C)Nc1ccnc2cc(Cl)ccc12 (stereo unspecified) | 0.949
20 | CON | 1.11
21 | CC(C)c1ccc2c(c1)c(SC(C)(C)C)c(CC(C)(C)C(=O)O)n2Cc1ccc(Cl)cc1 | 0.831
22 | O=c1ccn([C@@H]2O[C@H](COP(=O)(O)OP(=O)(O)OP(=O)(O)O)[C@@H](O)[C@H]2O)c(=O)[nH]1 | 1.16
23 | CN(C)c1ccc(C(=C2C=CC(=[N+](C)C)C=C2)c2ccc(N(C)C)cc2)cc1 | 1.37
24 | COc1ccc(CC2c3cc(OC)c(OC)cc3CC[N+]2(C)CCC(=O)OCCCCCOC(=O)CC[N+]2(C)CCc3cc(OC)c(OC)cc3C2Cc2ccc(OC)c(OC)c2)cc1OC (stereo unspecified) [Atracurium besylate] | 0.713
25 | CC(=O)[C@H]1CC[C@H]2[C@@H]3CC=C4C[C@@H](O)CC[C@]4(C)[C@H]3CC[C@]12C | 0.846
26 | CC(=O)[C@H]1CC[C@H]2[C@@H]3CC=C4C[C@@H](O)CC[C@]4(C)[C@H]3CC[C@]12C [Pregnenolone] | 0.806

Row | Structure (SMILES) | normalized bacterial growth
27 | O=c1ccc2ccccc2o1 | 1.13
28 | NCCOB(c1ccccc1)c1ccccc1 | 0.589
29 | CC1(C)C=Cc2cc3ccc(=O)oc3cc2O1 | 0.693
30 | CCOC(=O)c1c(C)cc(O)cc1O | 1.07
31 | CN(C)CCCN1c2ccccc2Sc2ccc(Cl)cc21 | 0.758
32 | CN(C)CCCN1c2ccccc2Sc2ccc(Cl)cc21 [Chlorpromazine hydrochloride] | 0.66
33 | CCCC1(C)C(C#N)(C#N)C1(C#N)C#N | 0.967
34 | CC1(C)C2CCC1(C(=O)O)C(=O)C2 (stereo unspecified) | 1.15
35 | O=c1[nH]cnc2c1ncn2[C@@H]1O[C@H](CO)[C@@H](O)[C@H]1O | 0.824
36 | CCCCOc1cc(CC2CNC(=O)N2)ccc1OC (stereo unspecified) | 1.12
37 | CC(C)Cn1c(=O)n(C)c(=O)c2[nH]cnc21 | 1.02
38 | CC(C)Cn1c(=O)n(C)c(=O)c2[nH]cnc21 [3-Isobutyl-1-methylxanthine] | 0.959
39 | Cc1n[nH]c(=O)[nH]c1=O ["Azathymine, 6"] | 1.18
40 | COc1cc([C@@H]2c3cc4c(cc3[C@@H](O[C@@H]3O[C@@H]5CO[C@@H](c6cccs6)O[C@H]5[C@H](O)[C@H]3O)[C@H]3COC(=O)[C@H]23)OCO4)cc(OC)c1O | 0.92
41 | CC(=O)N[C@@H](C=O)[C@@H](O)[C@H](O)[C@H](O)CO | 1.1
42 | N[C@@H](Cc1ccc(O)c(I)c1)C(=O)O [3-Iodo-L-tyrosine] | 1.45
43 | Nc1ccc(S(=O)(=O)Nc2ccccn2)cc1 | 1.3
44 | CO[C@H]1C[C@H](O[C@H]2[C@H](C)[C@@H](O[C@@H]3O[C@H](C)C[C@H](N(C)C)[C@H]3O)[C@@H](C)C[C@@]3(CO3)C(=O)[C@H](C)[C@@H](O)[C@@H](C)[C@@H](C)OC(=O)[C@@H]2C)O[C@@H](C)[C@@H]1O [Oleandomycin phosphate] | 0.995
45 | CO[C@H]1C[C@H](O[C@H]2[C@H](C)[C@@H](O[C@@H]3O[C@H](C)C[C@H](N(C)C)[C@H]3O)[C@@H](C)C[C@@]3(CO3)C(=O)[C@H](C)[C@@H](O)[C@@H](C)[C@@H](C)OC(=O)[C@@H]2C)O[C@@H](C)[C@@H]1O | 0.713
46 | Nc1ncnc2c1ncn2C1CCCO1 (stereo unspecified) | 0.994
47 | Nc1ccn([C@@H]2O[C@H](CO)[C@@H](O)[C@@H]2O)c(=O)n1 [Cytosine-1-beta-D-arabinofuranoside hydrochloride] | 0.803
48 | Nc1ccn([C@@H]2O[C@H](CO)[C@@H](O)[C@@H]2O)c(=O)n1 | 1.12
49 | OC[C@H]1O[C@H](OCC2O[C@@H](O)[C@H](O)[C@@H](O)[C@@H]2O)[C@H](O)[C@@H](O)[C@H]1O (stereo partly specified) | 1.12
50 | O=C(NCCO)c1ccc2c(c1)nc(Nc1cccc(Cl)c1)c1ccncc12 [CK2 Inhibitor 2] | 0.948
51 | COc1ccnc(C[S+]([O-])c2nc3cc(OC(F)F)ccc3[nH]2)c1OC (stereo unspecified) | 0.885
